Assay results as given in patent publication US9486504B2, “Regulation of food preference using GLP-1 agonists” (Novo Nordisk A/S, priority 2003, dated 2016).
At least one compound was matched to its structure with a doubt left.

Tested on: Diet induced obesity (DIO) rats
Assay: Diet induced obesity (DIO) rats offered chow and candy; food intake monitored daily over 12-week treatment
Type: in vivo, rat
Settings: 0.2 mg/kg s.c. bid

## CCCCCCCCCCCCCCCC(=O)N[C@@H](CCC(=O)NCCCC[C@H](NC(=O)[C@H](C)NC(=O)[C@H](C)NC(=O)[C@H](CCC(N)=O)NC(=O)CNC(=O)[C@H](CCC(=O)O)NC(=O)[C@H](CC(C)C)NC(=O)[C@H](Cc1ccc(O)cc1)NC(=O)[C@H](CO)NC(=O)[C@H](CO)NC(=O)[C@@H](NC(=O)[C@H](CC(=O)O)NC(=O)[C@H](CO)NC(=O)[C@@H](NC(=O)[C@H](Cc1ccccc1)NC(=O)[C@@H](NC(=O)CNC(=O)[C@H](CCC(=O)O)NC(=O)[C@H](C)NC(=O)[C@@H](N)Cc1cnc[nH]1)[C@@H](C)O)[C@@H](C)O)C(C)C)C(=O)N[C@@H](CCC(=O)O)C(=O)N[C@@H](Cc1ccccc1)C(=O)N[C@H](C(=O)N[C@@H](C)C(=O)N[C@@H](Cc1c[nH]c2ccccc12)C(=O)N[C@@H](CC(C)C)C(=O)N[C@H](C(=O)N[C@@H](CCCNC(=N)N)C(=O)NCC(=O)N[C@@H](CCCNC(=N)N)C(=O)NCC(=O)O)C(C)C)[C@@H](C)CC)C(=O)O [Liraglutide, Arg^34, Lys^26(N^ε-(γ-Glu(N^ε-hexadecanoyl)))-GLP-1(7-37)]
n=10, vs. 1248.5±71.6 kcal for vehicle, p=0.001
  calories obtained from chow: 1589.0 ± 96.9 kcal
n=10, vs. 3803.2±110.2 kcal for vehicle, p=0.017
  calories obtained from candy: 2863.3 ± 200.9 kcal
n=10, vs. 5061.2±99.9 kcal for obese vehicle, p=0.009
  total cumulated caloric intake: 4452.3 ± 150.6 kcal
